Several values for one entry are separate records, joined by “and”; a condition that tells them apart may be missing. Identical values can stand only once. The list shows a part of the results. This data set is noisy: repeats of one test often differ as much as different tests do.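 HEK293T cells were given each compound shortly before transfection with a reporter in which red mCherry is followed by the SARS-CoV-2 frameshift element and then GFP in the −1 frame, so GFP appears only after frameshifting.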

This assay concerns SARS-CoV-2 -1 PRF reporter mCherry-FSE-GFP(-1). The assay is described as follows: percent effect, decrease of GFP/mCherry ratio (-1 PRF reporter) relative to controls; higher = stronger frameshift inhibition. The following applies: 10 µM; 24 h; HEK293T.
As for `CCCCCCOc1nsnc1C1=CCCN(C)C1` [xanomeline], the percent effect is -4.19%.

Take `NC(=O)COC(=O)c1ccccc1Nc1cccc(C(F)(F)F)c1` [colfenamate]: the percent effect is 11%.

As to `C[C@@H]1NC(=O)[C@@H](N)CNC(=O)[C@H](C2CCNC(=N)N2)NC(=O)/C(=C/NC(N)=O)NC(=O)[C@H](CNC(=O)CC(N)CCCN)NC1=O.N=C1NCC[C@H]([C@@H]2NC(=O)/C(=C/NC(N)=O)NC(=O)[C@H](CNC(=O)C[C@@H](N)CCCN)NC(=O)[C@H](CO)NC(=O)[C@@H](N)CNC2=O)N1` [Capreomycin], the percent effect is -3.72%.

With `CC(C)(C)CC(=O)OCC(=O)[C@@]12OC(C)(C)O[C@@H]1C[C@H]1[C@@H]3CCC4=CC(=O)C=C[C@]4(C)[C@@]3(F)[C@@H](O)C[C@@]12C` [triamcinolone hexacetonide], the percent effect amounted to 0.511%.

For `CCOC(=O)[C@H](CCc1ccccc1)N[C@@H](C)C(=O)N1[C@H](C(=O)O)C[C@H]2CCCC[C@@H]21` [trandolapril], the percent effect was -0.437% and -5.75%.

On to `CCOC(=O)n1ccn(C)c1=S` [carbimazole], for which the percent effect was -3.42%.

As for `O=C(NCC1CCCCN1)c1cc(OCC(F)(F)F)ccc1OCC(F)(F)F` (stereo not given) [Flecainide acetate], the percent effect is -2.92%.

Consider `COC(=O)C1=C(C)NC(C)=C(C(=O)OCCCN2CCC(c3ccccc3)(c3ccccc3)CC2)C1c1cccc([N+](=O)[O-])c1` (stereo not given) [dexniguldipine  iguldipine], for which the percent effect is -13.4%.

For `CCCCS(=O)(=O)N[C@@H](Cc1ccc(OCCCCC2CCNCC2)cc1)C(=O)O` [tirofiban], the percent effect was determined as 14%.

As to `NS(=O)(=O)c1cc2c(cc1Cl)N=C(CSCc1ccccc1)NS2(=O)=O` [benzthiazide], the percent effect is -3.61%.

For `C[C@H]1CN(C[C@H](Cc2ccccc2)C(=O)NCC(=O)O)CC[C@@]1(C)c1cccc(O)c1` [alvimopan], the percent effect was -6.68%.

For the molecule `CN(C(=O)CN(CCO)CC(=O)N(C)C(C)(C)Cc1ccccc1)C(C)(C)Cc1ccccc1` [oxetacaine], the percent effect was -2.38%.

For the molecule `CO[C@@H]1[C@@H](OC(N)=O)[C@@H](O)[C@H](Oc2ccc3c(O)c(NC(=O)c4ccc(O)c(CC=C(C)C)c4)c(=O)oc3c2C)OC1(C)C` [Novobiocin·Na], the percent effect came out at 1.45%.

With `CC(C)(C)NC[C@H](O)COc1ccccc1C1CCCC1`, the percent effect is -11%.

For the molecule `C[C@@H](n1cnc2cc(Cl)ccc2c1=O)[C@](O)(Cn1cncn1)c1ccc(F)cc1F` [albaconazole], the percent effect was determined as 1.81%.

As to `C[C@H]1[C@H](NC(=O)/C(=N\OC(C)(C)C(=O)O)c2csc(N)n2)C(=O)N1S(=O)(=O)O` [Azactam], the percent effect was -5.08%.

Take `N[C@@H]1[C@H]2CN(c3nc4c(cc3F)c(=O)c(C(=O)O)cn4-c3ccc(F)cc3F)C[C@@H]12` [trovafloxacin]: the percent effect was found to be 5.96%.

With `CCN(CC)CCOC(=O)C(c1ccccc1)C1CCCCC1` (stereo not given) [drofenine], the percent effect is -3.16%.

Consider `CC(C)(O)c1ccccc1CC[C@@H](SCC1(CC(=O)O)CC1)c1cccc(/C=C/c2ccc3ccc(Cl)cc3n2)c1` [montelukast], for which the percent effect was -1.04% and 2.46%.

`C[C@](N)(Cc1ccc(O)c(O)c1)C(=O)O`: the percent effect was -4.25%.

For `CN[C@H](CC(C)C)C(=O)N[C@H]1C(=O)N[C@@H](CC(N)=O)C(=O)N[C@H]2C(=O)N[C@H]3C(=O)N[C@H](C(=O)N[C@H](C(=O)O)c4cc(O)cc(O)c4-c4cc3ccc4O)[C@H](O[C@H]3C[C@](C)(N)[C@@H](O)[C@H](C)O3)c3ccc(c(Cl)c3)Oc3cc2cc(c3O[C@@H]2O[C@H](CO)[C@@H](O)[C@H](O)[C@H]2O[C@H]2C[C@](C)(NCc3ccc(-c4ccc(Cl)cc4)cc3)[C@@H](O)[C@H](C)O2)Oc2ccc(cc2Cl)[C@H]1O` [oritavancin], the percent effect is -3.81%.

As to `C[C@]12CCC(=O)C=C1C=C[C@@H]1[C@@H]2CC[C@@]2(C)[C@H]1CC[C@@]21CCC(=O)O1`, the percent effect was -3.65%.

Turning to `CC[N+](C)(C)Cc1ccccc1Br` [Bretylol], the percent effect is -8.04%.

As for `O=C(O)[C@@H]1[C@H]2C[C@H]3c4[nH]c5ccccc5c4CCN3C[C@@H]2CC[C@@H]1O` [yohimbic acid], the percent effect was determined as 3.81%.

On to `S=C(NCCc1ccccn1)Nc1ccc(Br)cn1` [trovirdine], for which the percent effect was found to be 0.798%.

For `CC(C)(C)c1cc(/C=C2\SC(=N)NC2=O)cc(C(C)(C)C)c1O` [darbufelone], the percent effect was 0.0571%.

Take `CN1CCC[C@@H]1Cc1c[nH]c2ccc(CCS(=O)(=O)c3ccccc3)cc12` [eletriptan]: the percent effect was -3.64%.

For `CO/N=C1\C[C@]2(C[C@@H]3C[C@@H](C/C=C(\C)C[C@@H](C)/C=C/C=C4\CO[C@@H]5[C@H](O)C(C)=C[C@@H](C(=O)O3)[C@]45O)O2)O[C@H](/C(C)=C/C(C)C)[C@H]1C`, the percent effect came out at 4.7%.

As for `NC(=O)c1cc[n+](CC2=C(C(=O)O)N3C(=O)[C@@H](NC(=O)[C@@H](c4ccccc4)S(=O)(=O)[O-])[C@H]3SC2)cc1`, the percent effect was -0.12%.

Take `CCOc1ccc(Cc2nccc3cc(OCC)c(OCC)cc23)cc1OCC` [ethaverine]: the percent effect was -6.73%.

With `CCC(=O)c1ccc(O)cc1` [paroxypropione], the percent effect is -0.277%.

Regarding `Cc1cccc(N(C)C(=S)Oc2ccc3ccccc3c2)c1` [tolnaftate], the percent effect is -1.66%.

As for `O=C(OCCOCCN1CCCCC1)N1c2ccccc2Sc2cccnc21` [pipazetate], the percent effect worked out at 3.76%.

Consider `OC(c1cc(C(F)(F)F)nc2c(C(F)(F)F)cccc12)C1CCCCN1` (stereo not given) [mefloquine], for which the percent effect is -1.33%.

As to `CCC(C)C(C(=O)OC1CC[N+](C)(C)CC1)c1ccccc1` (stereo not given) [pentapiperium metilsulfate], the percent effect is -9.02%.

As for `CN(C)CC/C=C1/c2ccccc2Sc2ccc(Cl)cc21` [chlorprothixene], the percent effect was -2.14%.

As for `Cc1ccc(Nc2c(F)cccc2Cl)c(CC(=O)O)c1` [lumiracoxib], the percent effect was -2.68%.

Take `COC(=O)[C@H]1[C@H]2C[C@@H]3c4[nH]c5cc(OC)ccc5c4CCN3C[C@H]2C[C@@H](OC(=O)c2cc(OC)c(OC)c(OC)c2)[C@@H]1OC` [reserpine]: the percent effect is -12.9%.

With `CCCCCCCCCCCCN1CCCCCC1=O` [laurocapram], the percent effect is 0.428%.

With `Oc1ccccc1-c1nnco1` [fenadiazole], the percent effect was -1.1%.

Source of the values: the supplement of paper PMC8256030.
